# Experiment: Odour description
row,Structure (SMILES),Odour description
1,"CC1CCC(CC=O)C1(C)C (centres unmarked) [2-(2,2,3-trimethylcyclopentyl)acetaldehyde]","fruity, sweet, anise"
2,"CC(CO)C1CC1C1CCC(C)C1(C)C (centres unmarked) [2-[2-(2,2,3-trimethylcyclopentyl)cyclopropyl]propan-1-ol]","cedarwood, sandalwood, creamy"
3,"CCC(C=CC1CC2CC2(C)C1(C)C)CO (centres unmarked) [2-ethyl-4-(1,2,2-trimethyl-3-bicyclo[3.1.0]hexanyl)but-3-en-1-ol]","sandalwood, woody, green, fruity"
4,"CCC(CO)C1CC1C1CC2CC2(C)C1(C)C (centres unmarked) [Compound 3a, 2-[2-(1,2,2-trimethyl-3-bicyclo[3.1.0]hexanyl)cyclopropyl]butan-1-ol]","sandal, cedarwood, floral, fruity, creamy, soft, green"
5,"CC(CO)C1CC1C1CC2CC2(C)C1(C)C (centres unmarked) [Compound 3b, 2-[2-(1,2,2-trimethyl-3-bicyclo[3.1.0]hexanyl)cyclo-propyl]propan-1-ol]","green, floral, fruity, woody, creamy, sandal"
